According to the supplement of paper PMC12819154, “High-throughput peptide-centric local stability assay extends protein–ligand identification to membrane proteins, tissues and bacteria” (Nature Structural & Molecular Biology, 2025):
Some of the results follow. Small differences around the control level are noise.

By UniProt entry, the sequences of proteins in these tests, tags left out. Where a name states a change or a piece, a line headed by the entry shows the natural chain unless it says otherwise.
UniProt Q9C0D4: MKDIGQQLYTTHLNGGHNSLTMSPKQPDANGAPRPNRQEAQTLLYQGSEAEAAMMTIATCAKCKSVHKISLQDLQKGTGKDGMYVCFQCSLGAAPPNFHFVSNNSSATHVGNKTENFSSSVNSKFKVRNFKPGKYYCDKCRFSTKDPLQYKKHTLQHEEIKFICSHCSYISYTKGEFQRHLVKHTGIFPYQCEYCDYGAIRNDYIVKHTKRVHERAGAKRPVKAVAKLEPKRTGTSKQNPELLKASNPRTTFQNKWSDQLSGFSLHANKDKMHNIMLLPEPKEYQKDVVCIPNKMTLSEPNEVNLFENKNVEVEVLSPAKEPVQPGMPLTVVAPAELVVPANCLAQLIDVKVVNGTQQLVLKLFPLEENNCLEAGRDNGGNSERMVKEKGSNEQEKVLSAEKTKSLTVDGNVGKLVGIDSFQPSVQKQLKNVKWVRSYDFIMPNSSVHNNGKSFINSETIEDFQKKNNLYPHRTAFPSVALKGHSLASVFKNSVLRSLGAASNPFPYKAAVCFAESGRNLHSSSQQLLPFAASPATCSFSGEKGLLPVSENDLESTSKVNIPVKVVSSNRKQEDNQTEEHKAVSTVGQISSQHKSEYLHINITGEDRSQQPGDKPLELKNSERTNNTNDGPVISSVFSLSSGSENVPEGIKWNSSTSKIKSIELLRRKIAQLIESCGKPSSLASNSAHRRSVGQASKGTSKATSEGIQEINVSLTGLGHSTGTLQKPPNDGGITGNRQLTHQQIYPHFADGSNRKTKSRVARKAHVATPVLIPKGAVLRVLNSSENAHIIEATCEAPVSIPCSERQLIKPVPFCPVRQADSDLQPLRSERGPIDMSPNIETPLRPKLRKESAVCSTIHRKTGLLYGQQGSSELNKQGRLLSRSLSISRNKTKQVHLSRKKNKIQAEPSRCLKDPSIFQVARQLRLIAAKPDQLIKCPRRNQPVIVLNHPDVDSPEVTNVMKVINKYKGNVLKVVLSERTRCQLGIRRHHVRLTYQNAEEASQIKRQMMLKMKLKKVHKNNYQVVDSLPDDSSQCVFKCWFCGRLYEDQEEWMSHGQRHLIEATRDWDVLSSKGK
UniProt Q9BZ68: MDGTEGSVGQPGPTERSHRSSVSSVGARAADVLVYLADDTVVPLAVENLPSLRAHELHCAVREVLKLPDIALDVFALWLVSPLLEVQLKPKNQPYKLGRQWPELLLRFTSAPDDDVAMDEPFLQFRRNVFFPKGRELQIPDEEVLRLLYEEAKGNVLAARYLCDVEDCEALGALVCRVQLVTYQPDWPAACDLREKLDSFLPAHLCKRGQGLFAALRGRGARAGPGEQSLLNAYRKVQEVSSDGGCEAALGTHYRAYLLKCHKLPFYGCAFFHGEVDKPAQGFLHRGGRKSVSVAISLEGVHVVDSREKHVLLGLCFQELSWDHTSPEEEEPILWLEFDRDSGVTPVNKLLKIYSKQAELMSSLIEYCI
UniProt Q9H3M7: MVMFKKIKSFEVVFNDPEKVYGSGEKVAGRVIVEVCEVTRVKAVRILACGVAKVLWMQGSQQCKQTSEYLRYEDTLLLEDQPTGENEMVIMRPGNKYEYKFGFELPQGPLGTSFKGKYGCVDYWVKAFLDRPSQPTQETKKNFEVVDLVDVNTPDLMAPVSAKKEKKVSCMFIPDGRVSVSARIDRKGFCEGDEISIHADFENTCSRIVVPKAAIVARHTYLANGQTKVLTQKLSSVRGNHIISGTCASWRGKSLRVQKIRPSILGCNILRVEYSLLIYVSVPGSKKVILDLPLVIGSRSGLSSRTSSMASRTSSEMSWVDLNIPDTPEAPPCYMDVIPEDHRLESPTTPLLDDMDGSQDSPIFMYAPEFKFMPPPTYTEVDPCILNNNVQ
UniProt Q9H444: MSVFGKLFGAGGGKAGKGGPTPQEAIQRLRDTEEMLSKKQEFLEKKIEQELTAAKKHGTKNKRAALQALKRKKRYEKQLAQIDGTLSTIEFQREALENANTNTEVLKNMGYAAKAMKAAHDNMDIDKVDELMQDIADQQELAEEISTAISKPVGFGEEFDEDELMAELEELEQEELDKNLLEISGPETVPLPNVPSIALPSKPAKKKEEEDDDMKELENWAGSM
UniProt Q9C037: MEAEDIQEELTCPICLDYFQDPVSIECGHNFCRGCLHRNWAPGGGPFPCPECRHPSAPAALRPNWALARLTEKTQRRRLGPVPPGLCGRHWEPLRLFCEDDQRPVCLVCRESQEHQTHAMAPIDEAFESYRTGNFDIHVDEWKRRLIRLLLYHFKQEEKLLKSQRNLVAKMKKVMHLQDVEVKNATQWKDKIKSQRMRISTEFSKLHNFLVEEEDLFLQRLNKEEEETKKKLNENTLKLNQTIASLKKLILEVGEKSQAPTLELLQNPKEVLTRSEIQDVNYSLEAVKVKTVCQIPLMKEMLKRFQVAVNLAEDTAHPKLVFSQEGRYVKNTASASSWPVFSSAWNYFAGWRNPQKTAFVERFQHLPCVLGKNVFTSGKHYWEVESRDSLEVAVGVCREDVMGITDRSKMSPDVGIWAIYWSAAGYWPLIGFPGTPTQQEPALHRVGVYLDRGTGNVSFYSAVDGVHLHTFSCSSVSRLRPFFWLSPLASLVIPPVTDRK
UniProt Q9H0D6: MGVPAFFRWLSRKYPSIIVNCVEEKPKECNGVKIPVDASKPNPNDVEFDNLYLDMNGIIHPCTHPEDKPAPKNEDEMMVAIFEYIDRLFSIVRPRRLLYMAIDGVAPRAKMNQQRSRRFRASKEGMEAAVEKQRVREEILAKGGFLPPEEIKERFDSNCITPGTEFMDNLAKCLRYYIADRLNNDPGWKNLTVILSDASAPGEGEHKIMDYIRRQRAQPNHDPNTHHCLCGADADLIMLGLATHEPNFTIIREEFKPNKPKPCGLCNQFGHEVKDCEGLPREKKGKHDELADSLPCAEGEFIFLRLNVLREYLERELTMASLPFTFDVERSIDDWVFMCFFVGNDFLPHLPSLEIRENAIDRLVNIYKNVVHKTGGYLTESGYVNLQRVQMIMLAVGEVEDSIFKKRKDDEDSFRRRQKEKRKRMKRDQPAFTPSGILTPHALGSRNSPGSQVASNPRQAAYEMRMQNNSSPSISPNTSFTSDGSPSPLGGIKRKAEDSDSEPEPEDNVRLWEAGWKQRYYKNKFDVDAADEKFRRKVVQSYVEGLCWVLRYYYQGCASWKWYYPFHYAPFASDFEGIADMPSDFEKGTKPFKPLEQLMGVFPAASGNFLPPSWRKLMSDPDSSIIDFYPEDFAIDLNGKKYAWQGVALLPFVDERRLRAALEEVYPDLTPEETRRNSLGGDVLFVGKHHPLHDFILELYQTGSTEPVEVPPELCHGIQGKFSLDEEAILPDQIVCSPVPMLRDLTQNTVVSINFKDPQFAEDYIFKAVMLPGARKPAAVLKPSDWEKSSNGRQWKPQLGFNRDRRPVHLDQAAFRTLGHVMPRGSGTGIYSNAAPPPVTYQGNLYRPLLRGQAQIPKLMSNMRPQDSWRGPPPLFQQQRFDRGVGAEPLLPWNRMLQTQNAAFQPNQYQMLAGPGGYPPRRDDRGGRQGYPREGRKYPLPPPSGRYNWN
UniProt Q9C0E2: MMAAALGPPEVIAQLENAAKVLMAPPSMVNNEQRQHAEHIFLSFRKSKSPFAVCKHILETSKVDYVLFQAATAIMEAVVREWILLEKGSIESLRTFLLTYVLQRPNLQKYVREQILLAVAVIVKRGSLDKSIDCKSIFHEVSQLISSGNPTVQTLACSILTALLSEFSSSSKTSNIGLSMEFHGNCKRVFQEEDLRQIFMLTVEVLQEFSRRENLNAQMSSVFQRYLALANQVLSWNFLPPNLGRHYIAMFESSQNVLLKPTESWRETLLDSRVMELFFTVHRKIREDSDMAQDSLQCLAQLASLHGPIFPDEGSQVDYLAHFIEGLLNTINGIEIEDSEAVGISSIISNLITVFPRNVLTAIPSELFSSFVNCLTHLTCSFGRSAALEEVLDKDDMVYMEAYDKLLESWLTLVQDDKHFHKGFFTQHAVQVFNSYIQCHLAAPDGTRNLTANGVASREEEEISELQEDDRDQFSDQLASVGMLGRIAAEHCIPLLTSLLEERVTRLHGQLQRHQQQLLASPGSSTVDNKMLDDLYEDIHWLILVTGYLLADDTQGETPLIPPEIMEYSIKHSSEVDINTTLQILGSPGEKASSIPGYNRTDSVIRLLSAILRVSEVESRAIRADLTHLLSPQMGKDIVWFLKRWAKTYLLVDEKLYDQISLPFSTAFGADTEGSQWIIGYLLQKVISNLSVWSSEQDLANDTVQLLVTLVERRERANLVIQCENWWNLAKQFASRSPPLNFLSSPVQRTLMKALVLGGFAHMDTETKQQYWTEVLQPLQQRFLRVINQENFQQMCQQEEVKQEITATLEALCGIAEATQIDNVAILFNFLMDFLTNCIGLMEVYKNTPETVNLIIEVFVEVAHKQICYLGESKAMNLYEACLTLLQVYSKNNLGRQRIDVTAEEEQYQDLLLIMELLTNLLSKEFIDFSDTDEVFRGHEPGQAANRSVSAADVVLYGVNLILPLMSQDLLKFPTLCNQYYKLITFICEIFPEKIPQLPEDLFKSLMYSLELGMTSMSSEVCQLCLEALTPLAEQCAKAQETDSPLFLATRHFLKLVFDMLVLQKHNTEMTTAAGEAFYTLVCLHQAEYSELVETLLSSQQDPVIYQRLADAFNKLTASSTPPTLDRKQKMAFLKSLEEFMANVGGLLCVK
UniProt Q9BZV1: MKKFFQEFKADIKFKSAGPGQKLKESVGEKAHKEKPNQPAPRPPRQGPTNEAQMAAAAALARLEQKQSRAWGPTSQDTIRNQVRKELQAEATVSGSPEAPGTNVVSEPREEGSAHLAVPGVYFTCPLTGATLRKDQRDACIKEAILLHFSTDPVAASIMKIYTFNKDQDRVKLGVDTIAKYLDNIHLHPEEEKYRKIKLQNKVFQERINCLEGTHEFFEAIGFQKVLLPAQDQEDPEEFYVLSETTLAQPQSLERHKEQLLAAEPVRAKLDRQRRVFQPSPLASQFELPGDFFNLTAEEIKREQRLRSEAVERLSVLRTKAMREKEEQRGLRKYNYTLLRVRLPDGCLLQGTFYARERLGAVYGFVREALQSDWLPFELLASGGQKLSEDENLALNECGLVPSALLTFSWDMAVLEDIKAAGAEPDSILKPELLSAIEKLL
UniProt Q9H0R8, whole entry, looked up: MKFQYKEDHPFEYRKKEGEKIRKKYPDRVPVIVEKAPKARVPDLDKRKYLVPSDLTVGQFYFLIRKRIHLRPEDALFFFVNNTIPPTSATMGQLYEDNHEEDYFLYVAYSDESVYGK
UniProt Q9H0F7: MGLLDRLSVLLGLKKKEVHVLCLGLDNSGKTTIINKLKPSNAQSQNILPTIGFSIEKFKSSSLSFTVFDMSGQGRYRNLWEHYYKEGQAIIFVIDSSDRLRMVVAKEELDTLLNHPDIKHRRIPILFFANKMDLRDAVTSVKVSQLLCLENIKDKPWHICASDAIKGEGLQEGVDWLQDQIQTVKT
UniProt Q9GZU8: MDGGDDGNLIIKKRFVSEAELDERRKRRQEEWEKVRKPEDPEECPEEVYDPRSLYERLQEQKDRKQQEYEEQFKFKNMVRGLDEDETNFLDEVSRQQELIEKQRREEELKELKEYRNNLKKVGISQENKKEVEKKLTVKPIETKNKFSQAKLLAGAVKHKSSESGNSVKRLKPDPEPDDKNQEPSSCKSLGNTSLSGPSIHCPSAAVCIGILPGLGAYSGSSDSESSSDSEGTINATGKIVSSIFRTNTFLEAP
UniProt Q9H0R6: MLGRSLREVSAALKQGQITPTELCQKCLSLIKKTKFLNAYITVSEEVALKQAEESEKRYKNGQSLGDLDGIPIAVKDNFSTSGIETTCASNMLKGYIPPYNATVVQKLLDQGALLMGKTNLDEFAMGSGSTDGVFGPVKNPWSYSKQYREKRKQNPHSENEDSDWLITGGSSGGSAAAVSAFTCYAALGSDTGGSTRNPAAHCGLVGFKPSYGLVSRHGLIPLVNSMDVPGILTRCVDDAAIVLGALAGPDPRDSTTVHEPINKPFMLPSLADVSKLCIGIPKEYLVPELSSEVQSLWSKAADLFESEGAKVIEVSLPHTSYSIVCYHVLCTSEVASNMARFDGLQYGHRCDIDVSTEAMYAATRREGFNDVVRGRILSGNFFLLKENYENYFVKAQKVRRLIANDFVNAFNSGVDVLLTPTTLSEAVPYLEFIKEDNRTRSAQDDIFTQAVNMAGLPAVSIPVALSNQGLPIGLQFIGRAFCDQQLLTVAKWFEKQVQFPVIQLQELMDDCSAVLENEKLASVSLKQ
UniProt Q9BYE7: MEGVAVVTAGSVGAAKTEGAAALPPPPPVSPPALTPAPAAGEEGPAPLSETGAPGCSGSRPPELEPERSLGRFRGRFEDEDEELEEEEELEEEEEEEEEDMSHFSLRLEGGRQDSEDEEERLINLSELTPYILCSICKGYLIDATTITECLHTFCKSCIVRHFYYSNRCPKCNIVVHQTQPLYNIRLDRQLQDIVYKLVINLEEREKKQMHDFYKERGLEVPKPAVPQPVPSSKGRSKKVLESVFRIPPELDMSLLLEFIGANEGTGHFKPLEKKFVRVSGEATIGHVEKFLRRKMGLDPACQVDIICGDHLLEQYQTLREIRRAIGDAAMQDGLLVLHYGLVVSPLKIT

Compound: CN[C@@H]1C[C@H]2O[C@@](C)([C@@H]1OC)n1c3ccccc3c3c4c(c5c6ccccc6n2c5c31)C(=O)NC4 [staurosporine]
Test: log2 fold change of tryptic peptide abundance, ligand vs vehicle (limited proteolysis) (log2 ratio); higher = more trypsin-susceptible (destabilized)
Conditions: ligand concentration: 20 uM; sample: K562 cleared lysate; digestion: 4 min, 22 C (HT-PELSA RT4min, Orbitrap Astral)

Row | Target | log2 fold change
1 | KCTD10 (peptide sequence: SHHLDEDEER, peptide start residue: 282) (UniProt Q9H3F6) | 0.245
2 | TLNRD1 (peptide sequence: NSACAVSEGCTLLSQALR, peptide start residue: 328) (UniProt Q9H1K6) | 0.3
3 | FRMD8 (peptide sequence: GQSLFAALR, peptide start residue: 209) (UniProt Q9BZ67) | 0.303
4 | MRPL37 (peptide sequence: ESLLLQVR, peptide start residue: 216) (UniProt Q9BZE1) | 0.265
5 | CUEDC2 (peptide sequence: ARGDLEEAVQMLVEGK, peptide start residue: 171) (UniProt Q9H467) | -0.325
6 | UniProt Q9C0D4 (peptide sequence: QLIKPVPFCPVR, peptide start residue: 806) | -0.519
7 | UniProt Q9BZ68 (peptide sequence: LDSFLPAHLCKR, peptide start residue: 197) | 0.371
8 | TXNIP (peptide sequence: GNHIISGTCASWR, peptide start residue: 239) (UniProt Q9H3M7) | -0.0874
9 | MRPL18 (peptide sequence: NVVACESIGR, peptide start residue: 121) (UniProt Q9H0U6) | 0.0844
10 | CHMP4B (peptide sequence: KQEFLEK, peptide start residue: 39) (UniProt Q9H444) | 0.13
11 | GAN (peptide sequence: EVISLEKLNVGNER, peptide start residue: 180) (UniProt Q9H2C0) | 0.548
12 | TRIM4 (peptide sequence: LNQTIASLKK, peptide start residue: 239) (UniProt Q9C037) | -0.228
13 | XRN2 (peptide sequence: KPAAVLKPSDWEK, peptide start residue: 776) (UniProt Q9H0D6) | 0.758
14 | NUF2 (peptide sequence: EIQESLKTK, peptide start residue: 235) (UniProt Q9BZD4) | 0.973
15 | UniProt Q9H1K0 (peptide sequence: QCGRLDEVEVLTENLR, peptide start residue: 755) | -0.26
16 | XPO4 (peptide sequence: TSNIGLSMEFHGNCK, peptide start residue: 173) (UniProt Q9C0E2) | -0.415
17 | DDX24 (peptide sequence: CLVVDEADRMVEK, peptide start residue: 467) (UniProt Q9GZR7) | -0.257
18 | RBM4 (peptide sequence: TAPGMGDQSGCYRCGK, peptide start residue: 152) (UniProt Q9BWF3) | -0.642
19 | UBXN6 (peptide sequence: YLDNIHLHPEEEKYR, peptide start residue: 181) (UniProt Q9BZV1) | -0.391
20 | STMN4 (peptide sequence: MESNKENR, peptide start residue: 149) (UniProt Q9H169) | 0.574
21 | UniProt Q9H0R8 (peptide sequence: KYPDRVPVIVEK, peptide start residue: 24) | 0.213
22 | ARL6 (peptide sequence: EGQAIIFVIDSSDRLR, peptide start residue: 86) (UniProt Q9H0F7) | 0.0767
23 | TRIT1 (peptide sequence: VLVNTKPQEMGTEK, peptide start residue: 133) (UniProt Q9H3H1) | 0.209
24 | UniProt Q9GZU8 (peptide sequence: VGISQENKK, peptide start residue: 122) | 0.19
25 | QRSL1 (peptide sequence: FDGLQYGHR, peptide start residue: 342) (UniProt Q9H0R6) | 0.384
26 | PCGF6 (peptide sequence: VSGEATIGHVEK, peptide start residue: 279) (UniProt Q9BYE7) | 0.924

A different layout for part of the listing above.
TRIM4 (peptide sequence: LNQTIASLKK, peptide start residue: 239) (UniProt Q9C037)
  log2 fold change: -0.228
XRN2 (peptide sequence: KPAAVLKPSDWEK, peptide start residue: 776) (UniProt Q9H0D6)
  log2 fold change: 0.758
